Some of the results follow.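 Rule for the calls: active = mitochondrial OCR inhibition above 30% at 1 uM; inactive = 30% or less.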 Most values come without repeats; read them as rough.
Each compound was assayed on Toxoplasma gondii RH tachyzoites (assay: inhibition of mitochondrial O2 consumption rate (% inhibition (relative to pre-injection OCR and atovaquone/antimycin A control)); higher = stronger ETC inhibition). Conditions: 1 µM; injection port (sequential injection order): B.
`O=C(C1CCCCC1)N1CC(=O)N2CCc3ccccc3C2C1` (configuration not stated) was tested, and the “inhibition of mitochondrial O2 consumption rate” value (“inhibition” for short) was inactive: 5.42.
With `NCCC(O)C(=O)N[C@@H]1C[C@H](N)[C@@H](OC2O[C@H](CN)[C@@H](O)[C@H](O)[C@H]2O)[C@H](O)C1OC1O[C@H](CO)[C@@H](O)[C@H](N)[C@H]1O` (some centres not stated) the “inhibition” value was inactive: 1.45.
In the case of `Cc1ccc2cc(C3NC(=O)c4ccccc4N3)c(Cl)nc2c1` (configuration not stated), the “inhibition” value is reported as inactive: -1.61.
With `O=C(Cn1ccnc1[N+](=O)[O-])NCc1ccccc1` the “inhibition” value was inactive: -1.94.
With `Cc1ccc2nc(C)c(-c3ccn(Cc4ccccc4)n3)n2c1` the “inhibition” value was inactive: -14.9.
For `COc1ccc(-c2onc(C(F)(F)F)c2-c2ccc(Cl)cc2)c(O)c1`, the “inhibition” value was inactive: -5.47.
In the case of `Cc1cc2ccccc2n1CC(=O)N1CC(C(=O)N2CCCCC2)Oc2ccccc21` (configuration not stated), the “inhibition” value is reported as inactive: -3.2.
With `NCC(c1cccs1)S(=O)(=O)c1ccccc1` (configuration not stated) the “inhibition” value was inactive: -9.79.
`O=C(C(Cc1c[nH]c2ccccc12)NS(=O)(=O)c1ccc(Cl)cc1)N1CCCCC1` (configuration not stated) was tested, and the “inhibition” value was inactive: -11.2.
`CC(=O)N1CCN(c2ccc(Oc3ccc(Cl)cc3O)cc2)CC1` was tested, and the “inhibition” value was inactive: -11.9.
For `Clc1cccc(CO[C@H]2CCc3ccccc3[C@@H]2n2ccnn2)c1`, the “inhibition” value was inactive: 4.39.
In the case of `CN1CCN(c2nccc3[nH]c(-c4cccc(F)c4)cc23)CC1`, the “inhibition” value is reported as inactive: -4.59.

Same assay, conditions: 1 µM; injection port (sequential injection order): C
In the case of `Cc1ccc(S(=O)(=O)Nc2ccc(CN3CCN(C(=O)c4cccc(C#N)c4)CC3)cc2)cc1`, the “inhibition” value is reported as inactive: -7.99.
`Cc1cc(C)nc(-n2nc(C)cc2Nc2ccccc2)n1` was tested, and the “inhibition” value was inactive: -1.15.
`COc1ccc(C2=NCCN2)cc1-c1cn(-c2cccc(C3=NCCN3)c2)nn1` was tested, and the “inhibition” value was inactive: -13.4.
For `Nc1ncnc2c1ncn2[C@@H]1O[C@H](COS(=O)(=O)NC(=O)c2ccccc2O)[C@@H](O)[C@H]1O`, the “inhibition” value was inactive: -27.
For `O=C(Nc1cnc2ccccc2c1)c1cccc(-n2cnnn2)c1`, the “inhibition” value was inactive: -22.9.
For `Clc1ccc(Cl)c(CO[C@H]2CCCC[C@@H]2n2ccnc2)c1`, the “inhibition” value was inactive: -12.2.
With `CCc1ccc([C@@H]2C[C@H](C(F)(F)F)n3ncc(C(=O)NCc4ccc(OC)cc4)c3N2)cc1` the “inhibition” value was inactive: -18.4.
For `Cn1c(=O)c2c(S(C)(=O)=O)snc2n(C)c1=O`, the “inhibition” value was inactive: -38.4.
For `O=C(Nc1ccccc1)c1ccc(-c2cc3ccncc3cc2OC2CCNCC2)s1`, the “inhibition” value was inactive: -10.4.
`NCCN(C(=O)c1ccc(Cl)cc1Cl)c1ccc(OCc2ccc(Cl)cc2)cc1` was tested, and the “inhibition” value was inactive: -1.68.
In the case of `Cc1cc(NC(=O)c2ccc(Oc3ccc(Cl)cc3O)o2)no1`, the “inhibition” value is reported as inactive: -5.5.
`Clc1ccc(-n2cc(COc3ccnc4ccccc34)nn2)cc1` was tested, and the “inhibition” value was inactive: -12.4.
With `Nc1cccnc1Nc1ccc(Cl)cc1` the “inhibition” value was inactive: -20.4.
In the case of `CC(C)C(Oc1cccc2ccccc12)C(=O)O` (configuration not stated), the “inhibition” value is reported as inactive: -33.9.
In the case of `CCCc1ccc(S(=O)(=O)Nc2ccc(CN3CCN(CC4CC4)CC3)cc2)cc1`, the “inhibition” value is reported as inactive: 0.475.

Source: the supplement of paper PMC10403144
